Measured values taken from PubChem BioAssay AID256 (DTP/NCI, 2004).
The list shows only some results of the screen, not a fair sample: it covers a few groups of compounds. Not every dose and run of a compound is shown. T/C gives the treated animals as a percentage of the vehicle group. Where survival is the endpoint, the PubChem record calls one and a half times the control and up active, and a quarter to a half above the control has no call in these data; cut-offs in other NCI protocols can differ. Schedule codes are those of the source, read here as Q, the interval in days (D) or hours (H), X, the number of doses. Some entries show no survivor count and are marked so; the dose need not have been tolerated. Brackets with × stand for listed records that agree. Some entries hold several experiments; the results are listed from low to high.

Tested on: CD2F1 mice, L1210 leukemia ip, survival T/C
Test: NCI In Vivo Anticancer Drug Screen. Data for tumor model L1210 Leukemia (intraperitoneal) in CD2F1 (CDF1) mice
Conditions: higher T/C = longer survival
Method: The antitumor activity of compounds was measured in mice bearing transplantable tumors. Survival or tumor size were measured and the results are expressed as the measurement made in the treated group (T) divided by the measurement made in the vehicle treated control group (C). The tumor model used in this assay is L1210 Leukemia (intraperitoneal) in CD2F1 (CDF1) mice

For `CN(CCCl)CCCl`, the T/C (T/C endpoint: mean survival time, dose: 0.75 mg/kg/injection, schedule: Q04DX003 (ip), vehicle: saline) was 152 % of control [survivor count not shown], the T/C (T/C endpoint: mean survival time, dose: 0.8 mg/kg/injection, schedule: Q01DX001 (ip), vehicle: none) was 132 % of control [survivor count not shown] and the T/C (T/C endpoint: mean survival time, dose: 0.8 mg/kg/injection, schedule: Q01DX001 (ip), vehicle: saline) was 132 % of control [survivor count not shown]. The T/C (T/C endpoint: mean survival time, dose: 1.0 mg/kg/injection, schedule: Q01DX001 (ip), vehicle: saline) was 115 [survivor count not shown] (2×) and 136 % of control [survivor count not shown], the T/C (T/C endpoint: mean survival time, dose: 1.0 mg/kg/injection, schedule: Q01DX001 (ip), vehicle: water) was 115 % of control [survivor count not shown] and the T/C (T/C endpoint: mean survival time, dose: 1.0 mg/kg/injection, schedule: Q01DX001 (iv), vehicle: water) was 110 % of control [survivor count not shown]. For the same molecule, the T/C (T/C endpoint: mean survival time, dose: 1.0 mg/kg/injection, schedule: Q01DX001 (sc), vehicle: water) was 113 % of control [survivor count not shown], the T/C (T/C endpoint: mean survival time, dose: 1.0 mg/kg/injection, schedule: Q01DX005 (iv), vehicle: water) was 127 % of control [survivor count not shown] and the T/C (T/C endpoint: mean survival time, dose: 1.0 mg/kg/injection, schedule: Q01DX009 (ip), vehicle: saline) was 123 [survivor count not shown] and 146 % of control [survivor count not shown]. The T/C (T/C endpoint: mean survival time, dose: 1.0 mg/kg/injection, schedule: Q01DX009 (oral), vehicle: water) was 104 % of control [survivor count not shown], the T/C (T/C endpoint: mean survival time, dose: 1.0 mg/kg/injection, schedule: Q01DX009 (sc), vehicle: water) was 118 % of control [survivor count not shown] and the T/C (T/C endpoint: mean survival time, dose: 1.0 mg/kg/injection, schedule: Q04DX003 (ip), vehicle: saline with Tween-80) was 141 % of control [survivor count not shown]. The T/C (T/C endpoint: mean survival time, dose: 1.0 mg/kg/injection, schedule: Q04DX003 (ip), vehicle: saline, evaluated on day 30) was 134 % of control, the T/C (T/C endpoint: mean survival time, dose: 1.0 mg/kg/injection, schedule: Q04DX003 (ip), vehicle: saline, evaluation day not shown) was 128 % of control [survivor count not shown] and the T/C (T/C endpoint: mean survival time, dose: 1.0 mg/kg/injection, schedule: Q04DX003 (ip), vehicle: water) was 135 % of control [survivor count not shown]. The T/C (T/C endpoint: mean survival time, dose: 1.0 mg/kg/injection, schedule: Q08DX002 (ip), vehicle: water) was 125 % of control [survivor count not shown], the T/C (T/C endpoint: mean survival time, dose: 1.5 mg/kg/injection, schedule: Q01DX001 (ip), vehicle: DMSO) was 137 % of control [survivor count not shown] and the T/C (T/C endpoint: mean survival time, dose: 1.5 mg/kg/injection, schedule: Q01DX001 (ip), vehicle: Klucel (hydroxypropylcellulose) (HPC)) was 135 [survivor count not shown] and 144 % of control [survivor count not shown]. The T/C (T/C endpoint: mean survival time, dose: 1.5 mg/kg/injection, schedule: Q01DX001 (ip), vehicle: other) was 124 % of control [survivor count not shown], the T/C (T/C endpoint: mean survival time, dose: 1.5 mg/kg/injection, schedule: Q01DX001 (ip), vehicle: saline) was 124 [survivor count not shown], 131 [survivor count not shown], 132 [survivor count not shown], 155 % of control [survivor count not shown] and the T/C (T/C endpoint: mean survival time, dose: 1.5 mg/kg/injection, schedule: Q04DX003 (ip), vehicle: saline with Tween-80) was 161 % of control [survivor count not shown]. For the same molecule, the T/C (T/C endpoint: mean survival time, dose: 1.5 mg/kg/injection, schedule: Q04DX003 (ip), vehicle: saline) was 149 [survivor count not shown] and 193 % of control [survivor count not shown], the T/C (T/C endpoint: mean survival time, dose: 1.6 mg/kg/injection, schedule: Q01DX001 (ip), vehicle: none) was 129 % of control [survivor count not shown] and the T/C (T/C endpoint: mean survival time, dose: 1.6 mg/kg/injection, schedule: Q01DX001 (ip), vehicle: saline) was 129 % of control [survivor count not shown]. The T/C (T/C endpoint: mean survival time, dose: 2.0 mg/kg/injection, schedule: Q01DX001 (ip), vehicle: saline) was 121 [survivor count not shown] (2×) and 142 % of control [survivor count not shown], the T/C (T/C endpoint: mean survival time, dose: 2.0 mg/kg/injection, schedule: Q01DX001 (ip), vehicle: water) was 134 % of control [survivor count not shown] and the T/C (T/C endpoint: mean survival time, dose: 2.0 mg/kg/injection, schedule: Q01DX001 (iv), vehicle: water) was 120 % of control [survivor count not shown]. The T/C (T/C endpoint: mean survival time, dose: 2.0 mg/kg/injection, schedule: Q01DX001 (sc), vehicle: water) was 123 % of control [survivor count not shown], the T/C (T/C endpoint: mean survival time, dose: 2.0 mg/kg/injection, schedule: Q01DX009 (ip), vehicle: saline) was 95 % of control [survivor count not shown] and the T/C (T/C endpoint: mean survival time, dose: 2.0 mg/kg/injection, schedule: Q01DX009 (oral), vehicle: water) was 120 % of control [survivor count not shown]. The T/C (T/C endpoint: mean survival time, dose: 2.0 mg/kg/injection, schedule: Q04DX003 (ip), vehicle: saline) was 136 % of control, the T/C (T/C endpoint: mean survival time, dose: 2.0 mg/kg/injection, schedule: Q04DX003 (ip), vehicle: water) was 138 % of control [survivor count not shown] and the T/C (T/C endpoint: mean survival time, dose: 2.0 mg/kg/injection, schedule: Q08DX002 (ip), vehicle: water) was 131 % of control [survivor count not shown]. For the same molecule, the T/C (T/C endpoint: mean survival time, dose: 2.3 mg/kg/injection, schedule: Q01DX001 (ip), vehicle: saline) was 145 [survivor count not shown] and 197 % of control [survivor count not shown], the T/C (T/C endpoint: mean survival time, dose: 3.0 mg/kg/injection, schedule: Q01DX001 (ip), vehicle: DMSO) was 164 % of control [survivor count not shown] and the T/C (T/C endpoint: mean survival time, dose: 3.0 mg/kg/injection, schedule: Q01DX001 (ip), vehicle: Klucel (hydroxypropylcellulose) (HPC)) was 131 % of control [survivor count not shown]. The T/C (T/C endpoint: mean survival time, dose: 3.0 mg/kg/injection, schedule: Q01DX001 (ip), vehicle: saline) was 102 [survivor count not shown], 141 [survivor count not shown], 142 [survivor count not shown], 149 % of control [survivor count not shown], the T/C (T/C endpoint: mean survival time, dose: 3.0 mg/kg/injection, schedule: Q04DX003 (ip), vehicle: saline) was 94 % of control [survivor count not shown] and the T/C (T/C endpoint: mean survival time, dose: 3.2 mg/kg/injection, schedule: Q01DX001 (ip), vehicle: none) was 86 % of control [survivor count not shown]. For the same molecule, the T/C (T/C endpoint: mean survival time, dose: 3.2 mg/kg/injection, schedule: Q01DX001 (ip), vehicle: saline) was 86 % of control [survivor count not shown], the T/C (T/C endpoint: mean survival time, dose: 3.4 mg/kg/injection, schedule: Q01DX001 (ip), vehicle: saline) was 136 [survivor count not shown] and 185 % of control [survivor count not shown] and the T/C (T/C endpoint: mean survival time, dose: 4.0 mg/kg/injection, schedule: Q01DX001 (ip), vehicle: saline) was 122 % of control [survivor count not shown] (2×). For the same molecule, the T/C (T/C endpoint: mean survival time, dose: 4.0 mg/kg/injection, schedule: Q01DX001 (ip), vehicle: water) was 115 % of control [survivor count not shown], the T/C (T/C endpoint: mean survival time, dose: 4.0 mg/kg/injection, schedule: Q01DX001 (iv), vehicle: water) was 119 % of control [survivor count not shown] and the T/C (T/C endpoint: mean survival time, dose: 4.0 mg/kg/injection, schedule: Q01DX009 (oral), vehicle: water) was 122 % of control [survivor count not shown]. The T/C (T/C endpoint: mean survival time, dose: 4.0 mg/kg/injection, schedule: Q08DX002 (ip), vehicle: water) was 121 % of control [survivor count not shown], the T/C (T/C endpoint: mean survival time, dose: 6.0 mg/kg/injection, schedule: Q01DX001 (ip), vehicle: DMSO) was 167 % of control [survivor count not shown] and the T/C (T/C endpoint: mean survival time, dose: 6.0 mg/kg/injection, schedule: Q01DX001 (ip), vehicle: saline) was 98 [survivor count not shown] and 117 % of control [survivor count not shown]. The T/C (T/C endpoint: mean survival time, dose: 8.0 mg/kg/injection, schedule: Q01DX001 (ip), vehicle: saline) was 118 % of control [survivor count not shown] (2×), the T/C (T/C endpoint: mean survival time, dose: 8.0 mg/kg/injection, schedule: Q01DX001 (oral), vehicle: water) was 108 % of control [survivor count not shown] and the T/C (T/C endpoint: mean survival time, dose: 8.0 mg/kg/injection, schedule: Q01DX009 (oral), vehicle: water) was 96 % of control [survivor count not shown]. For the same molecule, the T/C (T/C endpoint: mean survival time, dose: 16.0 mg/kg/injection, schedule: Q01DX001 (oral), vehicle: water) was 116 % of control [survivor count not shown], the T/C (T/C endpoint: median survival time, dose: 0.06 mg/kg/injection, schedule: Q01DX009 (ip), vehicle: saline) was 114 % of control and the T/C (T/C endpoint: median survival time, dose: 0.12 mg/kg/injection, schedule: Q01DX005 (ip), vehicle: saline) was 140 % of control. For the same molecule, the T/C (T/C endpoint: median survival time, dose: 0.12 mg/kg/injection, schedule: Q01DX009 (ip), vehicle: saline) was 133 % of control, the T/C (T/C endpoint: median survival time, dose: 0.13 mg/kg/injection, schedule: Q01DX009 (ip), vehicle: saline) was 127 [survivor count not shown] and 142 % of control [survivor count not shown] and the T/C (T/C endpoint: median survival time, dose: 0.25 mg/kg/injection, schedule: Q01DX005 (ip), vehicle: saline) was 144 % of control. The T/C (T/C endpoint: median survival time, dose: 0.25 mg/kg/injection, schedule: Q01DX009 (ip), vehicle: saline, evaluated on day 30) was 246 % of control, the T/C (T/C endpoint: median survival time, dose: 0.25 mg/kg/injection, schedule: Q01DX009 (ip), vehicle: saline, evaluation day not shown) was 127 [survivor count not shown] and 142 % of control [survivor count not shown] and the T/C (T/C endpoint: median survival time, dose: 0.5 mg/kg/injection, schedule: Q01DX005 (ip), vehicle: saline) was 156 % of control. The T/C (T/C endpoint: median survival time, dose: 0.5 mg/kg/injection, schedule: Q01DX009 (ip), vehicle: saline, evaluated on day 30) was 246 % of control, the T/C (T/C endpoint: median survival time, dose: 0.5 mg/kg/injection, schedule: Q01DX009 (ip), vehicle: saline, evaluation day not shown) was 127 [survivor count not shown] and 157 % of control [survivor count not shown] and the T/C (T/C endpoint: median survival time, dose: 0.7 mg/kg/injection, schedule: Q04DX002 (ip), vehicle: saline) was 107 % of control [survivor count not shown]. The T/C (T/C endpoint: median survival time, dose: 0.76 mg/kg/injection, schedule: Q01DX001 (ip), vehicle: saline) was 106 [survivor count not shown], 109 [survivor count not shown], 145 % of control [survivor count not shown], the T/C (T/C endpoint: median survival time, dose: 1.0 mg/kg/injection, schedule: Q01DX005 (ip), vehicle: saline) was 188 % of control and the T/C (T/C endpoint: median survival time, dose: 1.0 mg/kg/injection, schedule: Q01DX009 (ip), vehicle: saline, evaluated on day 30) was 246 % of control. The T/C (T/C endpoint: median survival time, dose: 1.0 mg/kg/injection, schedule: Q01DX009 (ip), vehicle: saline, evaluation day not shown) was 100 [survivor count not shown] and 114 % of control [survivor count not shown], the T/C (T/C endpoint: median survival time, dose: 1.2 mg/kg/injection, schedule: Q04DX002 (ip), vehicle: saline) was 109 % of control [survivor count not shown] and the T/C (T/C endpoint: median survival time, dose: 1.3 mg/kg/injection, schedule: Q01DX001 (ip), vehicle: saline) was 96 [survivor count not shown], 100 [survivor count not shown], 105 % of control [survivor count not shown]. For the same molecule, the T/C (T/C endpoint: median survival time, dose: 2.0 mg/kg/injection, schedule: Q01DX005 (ip), vehicle: saline) was 109 % of control, the T/C (T/C endpoint: median survival time, dose: 2.0 mg/kg/injection, schedule: Q04DX002 (ip), vehicle: saline) was 113 % of control [survivor count not shown] and the T/C (T/C endpoint: median survival time, dose: 2.1 mg/kg/injection, schedule: Q01DX001 (ip), vehicle: saline) was 104 [survivor count not shown], 108 [survivor count not shown], 147 % of control [survivor count not shown]. For the same molecule, the T/C (T/C endpoint: median survival time, dose: 3.3 mg/kg/injection, schedule: Q04DX002 (ip), vehicle: saline) was 116 % of control [survivor count not shown] and the T/C (T/C endpoint: median survival time, dose: 3.5 mg/kg/injection, schedule: Q01DX001 (ip), vehicle: saline) was 109 [survivor count not shown], 113 [survivor count not shown], 149 % of control [survivor count not shown].
